Experimental data taken from PubChem BioAssay AID652134 (The Scripps Research Institute Molecular Screening Center, 2013).
The entries are a selection whose mix differs from that of the whole data set. Calls of active or inactive are those of the source.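 The calls were made as follows: active = inhibition above the average of every tested compound plus 3 SD (cut at about 3.8% in these data); inactive = the rest.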

By UniProt entry, the sequences of proteins in these tests, tags left out. Where a name states a change or a piece, a line headed by the entry shows the natural chain unless it says otherwise.
UniProt P51843: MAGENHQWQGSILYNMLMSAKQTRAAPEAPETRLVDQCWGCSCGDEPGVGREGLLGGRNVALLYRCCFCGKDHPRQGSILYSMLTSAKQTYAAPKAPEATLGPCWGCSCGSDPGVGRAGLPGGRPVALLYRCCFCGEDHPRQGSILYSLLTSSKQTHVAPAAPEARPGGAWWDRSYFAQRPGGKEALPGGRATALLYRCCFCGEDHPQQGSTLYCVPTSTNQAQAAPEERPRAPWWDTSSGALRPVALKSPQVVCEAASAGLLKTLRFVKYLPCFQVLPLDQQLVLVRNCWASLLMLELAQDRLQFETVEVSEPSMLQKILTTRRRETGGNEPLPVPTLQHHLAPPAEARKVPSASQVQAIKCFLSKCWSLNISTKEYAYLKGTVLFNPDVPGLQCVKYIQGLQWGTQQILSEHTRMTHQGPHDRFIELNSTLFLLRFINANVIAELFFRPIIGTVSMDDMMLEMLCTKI

Target: Nuclear receptor subfamily 0 group B member 1 (Homo sapiens) (UniProt P51843)
Assay: NR0B1 repressor blockers, StAR reporter readout – cell-based, luminescence, HEK293T, full-length DAX-1, SF-1 activated StAR promoter, confirmation (AID 652134);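 also: 0% = DAX-1 cells with DMSO and 100% = no DAX-1 control cells with DMSO; active compounds raise luminescence by relieving repression of the StAR reporter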
Settings: HEK293T StAR-promoter luciferase reporter, SF-1/DAX-1 repression; at 6.8 µM; hits give high values

Row | Compound | inhibition
1 | CCOC(=O)NC1CCc2cc(OC)c(OC)c(OC)c2-c2ccc(OC)c(=O)cc21 (configuration not stated) | active: 16.2%
2 | O=C(C=Cc1ccccc1)Nc1ccccc1 | active: 12.3%
